These results are taken from PMC6504784.

Chains of the proteins cited; added tags and fusions are not shown.
UniProt P42866: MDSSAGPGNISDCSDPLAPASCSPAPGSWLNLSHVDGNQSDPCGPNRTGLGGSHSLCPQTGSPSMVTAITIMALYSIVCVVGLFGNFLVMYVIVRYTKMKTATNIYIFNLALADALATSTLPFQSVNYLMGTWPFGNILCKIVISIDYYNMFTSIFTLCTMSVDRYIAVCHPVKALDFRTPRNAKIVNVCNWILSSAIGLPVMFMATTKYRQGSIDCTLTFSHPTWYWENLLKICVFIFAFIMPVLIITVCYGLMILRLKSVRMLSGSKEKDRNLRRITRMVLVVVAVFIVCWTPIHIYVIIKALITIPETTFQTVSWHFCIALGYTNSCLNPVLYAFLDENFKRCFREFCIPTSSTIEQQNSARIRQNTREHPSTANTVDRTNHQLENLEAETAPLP
UniProt P25098: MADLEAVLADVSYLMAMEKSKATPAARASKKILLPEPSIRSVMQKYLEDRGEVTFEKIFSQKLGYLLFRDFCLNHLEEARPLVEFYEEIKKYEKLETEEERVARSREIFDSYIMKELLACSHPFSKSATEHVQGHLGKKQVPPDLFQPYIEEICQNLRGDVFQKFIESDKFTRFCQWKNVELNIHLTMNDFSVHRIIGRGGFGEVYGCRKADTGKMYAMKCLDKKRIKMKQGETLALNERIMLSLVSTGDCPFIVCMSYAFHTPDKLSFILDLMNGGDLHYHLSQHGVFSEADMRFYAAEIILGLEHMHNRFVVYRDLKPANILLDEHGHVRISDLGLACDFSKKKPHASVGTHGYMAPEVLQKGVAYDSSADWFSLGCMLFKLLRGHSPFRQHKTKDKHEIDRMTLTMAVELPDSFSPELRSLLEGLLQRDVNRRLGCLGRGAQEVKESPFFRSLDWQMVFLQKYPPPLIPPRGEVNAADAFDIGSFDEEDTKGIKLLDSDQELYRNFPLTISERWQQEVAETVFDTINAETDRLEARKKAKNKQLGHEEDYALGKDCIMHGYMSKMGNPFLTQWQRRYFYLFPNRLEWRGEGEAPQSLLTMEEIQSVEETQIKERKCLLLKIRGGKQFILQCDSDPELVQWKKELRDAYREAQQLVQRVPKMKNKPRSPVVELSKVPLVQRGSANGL

Results are given in words; binding and its absence hold for the method and conditions named. Binding seen in cells or lysates may run through a third protein. Some entries that bind do so weakly or less than the wild type.

This test concerns the target FLAG-MOP-NLuc (mouse (printed as mMOP)) (UniProt P42866). Nature of the test: FRET or BRET; HEK293 transiently transfected with 1 μg FLAG-MOP-NLuc and 4 μg GRK2-Venus; live cells in HBSS, 37°C, 5 μM furimazine; 10 μM DAMGO or vehicle added to control or Cmpd101-pretreated (30 μM, 30 min) cells; BRET ratio of vehicle-treated cells subtracted. On the technique in general: In BRET a luciferase serves as donor, and the signal depends on an acceptor being close.

“GRK2-Venus (from UniProt P25098 1-689) (enzyme)”: the binding result is “binds”.
